Positions count from the first letter of the chain named. Where two headings read alike, the source gives them in different places. No constants are given. Whether binding was seen depends on the method and setting. Some binding calls cover weakened binding; strength is not graded here.
How the values were obtained:
Test in all cases: two-hybrid
[1] = biological target: T1, CML13, yeast two-hybrid bait (pGBKT7-CML13) (Arabidopsis thaliana) (UniProt Q94AZ4)
T1 sequence: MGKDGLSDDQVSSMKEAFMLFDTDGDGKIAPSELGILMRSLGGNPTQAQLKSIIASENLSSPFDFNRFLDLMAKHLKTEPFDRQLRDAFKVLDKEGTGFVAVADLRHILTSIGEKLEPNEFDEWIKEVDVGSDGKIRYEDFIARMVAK

The chains behind the UniProt entries cited, without tags or fusion partners. Residues count along the entry.
UniProt Q8VZ50: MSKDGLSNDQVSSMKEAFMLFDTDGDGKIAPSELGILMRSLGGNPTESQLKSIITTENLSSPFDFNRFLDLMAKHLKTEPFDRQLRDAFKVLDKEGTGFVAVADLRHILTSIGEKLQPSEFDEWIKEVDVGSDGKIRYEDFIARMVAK
UniProt Q9FYG2, residues 755-1016: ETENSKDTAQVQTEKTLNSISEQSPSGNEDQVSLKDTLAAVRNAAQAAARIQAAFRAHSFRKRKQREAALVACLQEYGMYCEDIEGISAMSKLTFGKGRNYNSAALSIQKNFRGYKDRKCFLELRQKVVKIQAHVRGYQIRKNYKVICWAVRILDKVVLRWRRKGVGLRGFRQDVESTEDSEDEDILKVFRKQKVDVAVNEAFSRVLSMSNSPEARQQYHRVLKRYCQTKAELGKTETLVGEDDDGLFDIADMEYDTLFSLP
UniProt Q9M199, residues 158-517: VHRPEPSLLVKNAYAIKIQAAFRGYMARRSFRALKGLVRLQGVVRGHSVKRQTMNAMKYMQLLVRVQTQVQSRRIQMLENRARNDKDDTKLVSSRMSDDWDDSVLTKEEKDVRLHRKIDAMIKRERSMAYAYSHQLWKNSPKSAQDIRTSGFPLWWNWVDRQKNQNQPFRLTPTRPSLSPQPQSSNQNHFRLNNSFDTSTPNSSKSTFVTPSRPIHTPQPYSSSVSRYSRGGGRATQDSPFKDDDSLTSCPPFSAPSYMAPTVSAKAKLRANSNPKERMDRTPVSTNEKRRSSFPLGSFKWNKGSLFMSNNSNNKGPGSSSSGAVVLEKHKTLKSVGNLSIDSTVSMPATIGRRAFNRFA
UniProt Q8LPG9, residues 307-668: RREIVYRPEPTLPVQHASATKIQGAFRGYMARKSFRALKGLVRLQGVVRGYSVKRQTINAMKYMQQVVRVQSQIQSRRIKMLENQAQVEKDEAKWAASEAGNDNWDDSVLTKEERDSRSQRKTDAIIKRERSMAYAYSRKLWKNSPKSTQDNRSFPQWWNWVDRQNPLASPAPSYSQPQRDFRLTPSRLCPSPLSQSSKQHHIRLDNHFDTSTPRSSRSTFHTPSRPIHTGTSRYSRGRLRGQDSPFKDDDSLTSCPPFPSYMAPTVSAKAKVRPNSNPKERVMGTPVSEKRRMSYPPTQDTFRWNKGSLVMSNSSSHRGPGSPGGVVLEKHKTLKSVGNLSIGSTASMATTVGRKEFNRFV
UniProt Q9LK76, residues 98-389: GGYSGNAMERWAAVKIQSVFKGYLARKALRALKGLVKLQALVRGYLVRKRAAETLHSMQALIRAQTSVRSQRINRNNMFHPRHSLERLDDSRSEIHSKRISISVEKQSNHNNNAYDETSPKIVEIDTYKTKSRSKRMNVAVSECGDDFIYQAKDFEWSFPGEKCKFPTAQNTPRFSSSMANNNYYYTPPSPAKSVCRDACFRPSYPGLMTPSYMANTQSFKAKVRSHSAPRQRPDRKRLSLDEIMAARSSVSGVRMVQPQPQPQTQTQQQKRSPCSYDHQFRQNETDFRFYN
UniProt F4JIU4, residues 763-1134: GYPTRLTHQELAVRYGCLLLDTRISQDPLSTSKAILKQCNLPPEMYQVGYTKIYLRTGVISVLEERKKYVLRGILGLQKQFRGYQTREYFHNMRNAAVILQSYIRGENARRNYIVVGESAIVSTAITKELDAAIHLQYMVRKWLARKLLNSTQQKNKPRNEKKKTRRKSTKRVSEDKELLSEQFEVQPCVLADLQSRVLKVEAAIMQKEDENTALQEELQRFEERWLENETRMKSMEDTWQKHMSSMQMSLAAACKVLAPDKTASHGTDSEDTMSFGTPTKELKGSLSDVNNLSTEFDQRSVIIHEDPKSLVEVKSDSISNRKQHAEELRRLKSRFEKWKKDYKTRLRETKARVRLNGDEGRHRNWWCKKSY

[2] = biological target: T1, CML13, yeast two-hybrid bait (pGBKT7-CML13) (Arabidopsis thaliana); remark: listed apart in the source
[3] = biological target: T2, CML14, yeast two-hybrid bait (pGBKT7-CML14) (Arabidopsis thaliana) (UniProt Q8VZ50)
T2 sequence: T1 sequence with G2S, D8N, Q47E, A48S, A55T, S56T, E117Q, N119S

Measured: binding

CAMTA4 (AA# 755-1016), yeast two-hybrid prey (from UniProt Q9FYG2 755-1016) (domain or fragment)
binds: all assays above

CAMTA6 (AA# 660-845), yeast two-hybrid prey (from UniProt Q9LSP8-3 660-845) (domain or fragment)
binds: all assays above

IQD13 (AA# 158-517), yeast two-hybrid prey (from UniProt Q9M199 158-517) (domain or fragment)
binds: all assays above

IQD14 (AA# 307-668), yeast two-hybrid prey (from UniProt Q8LPG9 307-668) (domain or fragment)
binds: all assays above

IQD26 (AA# 98-389), yeast two-hybrid prey (from UniProt Q9LK76 98-389) (domain or fragment)
binds: all assays above

myosin VIII-B (AA# 763-1135), yeast two-hybrid prey (from UniProt F4JIU4 763-1134) (domain or fragment)
binds: all assays above

Reference: article doi:10.1101/2023.03.09.531943
